{"source": "PubChem BioAssay AID1224828 (NIAID, 2016)", "aim": "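Regulators linking TLR4 signalling to p65 nuclear translocation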 (primary screen)", "cells": "mouse RAW264.7 G9 macrophage reporter cells (GFP-p65, Tnf promoter-mCherry)", "reagent": "siRNA pool against mouse genes, 100 nM", "time to read-out": "2 days siRNA transfection, then 40 min LPS before fixation", "conditions": "LPS (Salmonella minnesota R595) at 10 ng/ml", "measurement": "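Imaged p65 nuclear translocation ratio, normalised to the plate median, converted to robust z-scores and averaged across two replicates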", "reading the numbers": "p65 translocation robust z-score: higher = more nuclear NF-kappaB p65 after LPS than the plate median; nuclear/cytoplasmic p65 ratio: higher = more nuclear NF-kappaB p65", "rule for the call": "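Active if robust z is above 3.3 (negative regulators) or below -1.56, the Tlr4 control median (positive regulators); activity score 50 or more; control wells not called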", "meaning of the calls": "active = hit (p65 shift raised or lowered); inactive = no clear change", "note": "In all, the deposit lists about 17,000 reagents; below is a part drawn at random. Of all reagents, 762 (4.5%) got an active call. 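Active calls include both raised and lowered p65 entry, mostly lowered; wells with fewer than 50 cells lack a z-score.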 Raw values vary from plate to plate and are shown uncorrected."}
{"Gene": "Cald1 (GeneID 109624)", "p65 translocation robust z-score": -0.05, "nuclear/cytoplasmic p65 ratio, rep 1": 1.6, "nuclear/cytoplasmic p65 ratio, rep 2": 1.76, "low cell count flag": "enough cells to score", "call": "inactive"}
{"Gene": "Sox30 (GeneID 214105)", "p65 translocation robust z-score": -0.23, "nuclear/cytoplasmic p65 ratio, rep 1": 1.4, "nuclear/cytoplasmic p65 ratio, rep 2": 1.2, "low cell count flag": "enough cells to score", "call": "inactive"}
{"Gene": "Dph1 (GeneID 116905)", "p65 translocation robust z-score": 0.21, "nuclear/cytoplasmic p65 ratio, rep 1": 1.54, "nuclear/cytoplasmic p65 ratio, rep 2": 1.35, "low cell count flag": "enough cells to score", "call": "inactive"}
{"Gene": "Gdf9 (GeneID 14566)", "p65 translocation robust z-score": -1.37, "nuclear/cytoplasmic p65 ratio, rep 1": 1.26, "nuclear/cytoplasmic p65 ratio, rep 2": 1.19, "low cell count flag": "enough cells to score", "call": "inactive"}
{"Gene": "Cep120 (GeneID 225523)", "p65 translocation robust z-score": 2.76, "nuclear/cytoplasmic p65 ratio, rep 1": 1.74, "nuclear/cytoplasmic p65 ratio, rep 2": 2.17, "low cell count flag": "enough cells to score", "call": "inactive"}
{"Gene": "Or7g21 (GeneID 258557)", "nuclear/cytoplasmic p65 ratio, rep 1": 1.33, "nuclear/cytoplasmic p65 ratio, rep 2": 1.16, "low cell count flag": "fewer than 50 cells per well; well left out of scoring", "call": "inactive"}
{"Gene": "Vkorc1 (GeneID 27973)", "nuclear/cytoplasmic p65 ratio, rep 1": 1.65, "nuclear/cytoplasmic p65 ratio, rep 2": 1.22, "low cell count flag": "fewer than 50 cells per well; well left out of scoring", "call": "inactive"}
{"Gene": "Plxnb1 (GeneID 235611)", "p65 translocation robust z-score": -0.61, "nuclear/cytoplasmic p65 ratio, rep 1": 1.42, "nuclear/cytoplasmic p65 ratio, rep 2": 1.32, "low cell count flag": "enough cells to score", "call": "inactive"}
{"Gene": "Ncoa3 (GeneID 17979)", "p65 translocation robust z-score": -0.49, "nuclear/cytoplasmic p65 ratio, rep 1": 1.36, "nuclear/cytoplasmic p65 ratio, rep 2": 1.3, "low cell count flag": "enough cells to score", "call": "inactive"}
{"Gene": "Trim25 (GeneID 217069)", "p65 translocation robust z-score": 1.28, "nuclear/cytoplasmic p65 ratio, rep 1": 1.57, "nuclear/cytoplasmic p65 ratio, rep 2": 1.3, "low cell count flag": "enough cells to score", "call": "inactive"}
{"Gene": "Vcam1 (GeneID 22329)", "p65 translocation robust z-score": -0.07, "nuclear/cytoplasmic p65 ratio, rep 1": 1.44, "nuclear/cytoplasmic p65 ratio, rep 2": 1.55, "low cell count flag": "enough cells to score", "call": "inactive"}
{"Gene": "Wbp2 (GeneID 22378)", "p65 translocation robust z-score": -0.78, "nuclear/cytoplasmic p65 ratio, rep 1": 1.5, "nuclear/cytoplasmic p65 ratio, rep 2": 1.39, "low cell count flag": "enough cells to score", "call": "inactive"}
{"Gene": "Cldn11 (GeneID 18417)", "p65 translocation robust z-score": -0.86, "nuclear/cytoplasmic p65 ratio, rep 1": 1.3, "nuclear/cytoplasmic p65 ratio, rep 2": 1.27, "low cell count flag": "enough cells to score", "call": "inactive"}
{"Gene": "Nell1 (GeneID 338352)", "p65 translocation robust z-score": -0.28, "nuclear/cytoplasmic p65 ratio, rep 1": 1.58, "nuclear/cytoplasmic p65 ratio, rep 2": 1.45, "low cell count flag": "enough cells to score", "call": "inactive"}
{"Gene": "Actr1b (GeneID 226977)", "p65 translocation robust z-score": -0.57, "nuclear/cytoplasmic p65 ratio, rep 1": 1.53, "nuclear/cytoplasmic p65 ratio, rep 2": 1.54, "low cell count flag": "enough cells to score", "call": "inactive"}
{"Gene": "Pus7l (GeneID 78895)", "nuclear/cytoplasmic p65 ratio, rep 1": 1.14, "nuclear/cytoplasmic p65 ratio, rep 2": 1.34, "low cell count flag": "fewer than 50 cells per well; well left out of scoring", "call": "inactive"}
{"Gene": "Ptgfrn (GeneID 19221)", "p65 translocation robust z-score": -0.02, "nuclear/cytoplasmic p65 ratio, rep 1": 1.35, "nuclear/cytoplasmic p65 ratio, rep 2": 1.23, "low cell count flag": "enough cells to score", "call": "inactive"}
{"Gene": "Ifnar1 (GeneID 15975)", "p65 translocation robust z-score": 1.28, "nuclear/cytoplasmic p65 ratio, rep 1": 1.58, "nuclear/cytoplasmic p65 ratio, rep 2": 1.56, "low cell count flag": "enough cells to score", "call": "inactive"}
{"Gene": "Cd37 (GeneID 12493)", "p65 translocation robust z-score": -0.47, "nuclear/cytoplasmic p65 ratio, rep 1": 1.38, "nuclear/cytoplasmic p65 ratio, rep 2": 1.33, "low cell count flag": "enough cells to score", "call": "inactive"}
{"Gene": "Actr3 (GeneID 74117)", "p65 translocation robust z-score": -1.23, "nuclear/cytoplasmic p65 ratio, rep 1": 1.42, "nuclear/cytoplasmic p65 ratio, rep 2": 1.45, "low cell count flag": "enough cells to score", "call": "inactive"}
{"Gene": "Vmn1r230 (GeneID 171231)", "p65 translocation robust z-score": 0.98, "nuclear/cytoplasmic p65 ratio, rep 1": 1.58, "nuclear/cytoplasmic p65 ratio, rep 2": 1.8, "low cell count flag": "enough cells to score", "call": "inactive"}
{"Gene": "Pigr (GeneID 18703)", "p65 translocation robust z-score": 0.56, "nuclear/cytoplasmic p65 ratio, rep 1": 1.54, "nuclear/cytoplasmic p65 ratio, rep 2": 1.51, "low cell count flag": "enough cells to score", "call": "inactive"}
{"Gene": "Klf4 (GeneID 16600)", "p65 translocation robust z-score": 0.47, "nuclear/cytoplasmic p65 ratio, rep 1": 1.58, "nuclear/cytoplasmic p65 ratio, rep 2": 1.4, "low cell count flag": "enough cells to score", "call": "inactive"}
{"Gene": "Zfp354c (GeneID 30944)", "p65 translocation robust z-score": 0.61, "nuclear/cytoplasmic p65 ratio, rep 1": 1.53, "nuclear/cytoplasmic p65 ratio, rep 2": 1.29, "low cell count flag": "enough cells to score", "call": "inactive"}
{"Gene": "Eef1d (GeneID 66656)", "p65 translocation robust z-score": -0.15, "nuclear/cytoplasmic p65 ratio, rep 1": 1.44, "nuclear/cytoplasmic p65 ratio, rep 2": 1.28, "low cell count flag": "enough cells to score", "call": "inactive"}
{"Gene": "Cth (GeneID 107869)", "p65 translocation robust z-score": -0.68, "nuclear/cytoplasmic p65 ratio, rep 1": 1.28, "nuclear/cytoplasmic p65 ratio, rep 2": 1.38, "low cell count flag": "enough cells to score", "call": "inactive"}
{"Gene": "Chrdl2 (GeneID 69121)", "p65 translocation robust z-score": 0.52, "nuclear/cytoplasmic p65 ratio, rep 1": 1.65, "nuclear/cytoplasmic p65 ratio, rep 2": 1.89, "low cell count flag": "enough cells to score", "call": "inactive"}

Entries listed so far whose gene name starts with A or a:
{"Gene": "Actr1b (GeneID 226977)", "p65 translocation robust z-score": -0.57, "nuclear/cytoplasmic p65 ratio, rep 1": 1.53, "nuclear/cytoplasmic p65 ratio, rep 2": 1.54, "low cell count flag": "enough cells to score", "call": "inactive"}
{"Gene": "Actr3 (GeneID 74117)", "p65 translocation robust z-score": -1.23, "nuclear/cytoplasmic p65 ratio, rep 1": 1.42, "nuclear/cytoplasmic p65 ratio, rep 2": 1.45, "low cell count flag": "enough cells to score", "call": "inactive"}
